Test results from PMC12667529.
These are yes or no findings as the source states them, for the method shown. Some results given as binding are weak or reduced against the parent protein; the word gives no strength.

The chains behind the UniProt entries cited, without tags or fusion partners.
UniProt Q13148: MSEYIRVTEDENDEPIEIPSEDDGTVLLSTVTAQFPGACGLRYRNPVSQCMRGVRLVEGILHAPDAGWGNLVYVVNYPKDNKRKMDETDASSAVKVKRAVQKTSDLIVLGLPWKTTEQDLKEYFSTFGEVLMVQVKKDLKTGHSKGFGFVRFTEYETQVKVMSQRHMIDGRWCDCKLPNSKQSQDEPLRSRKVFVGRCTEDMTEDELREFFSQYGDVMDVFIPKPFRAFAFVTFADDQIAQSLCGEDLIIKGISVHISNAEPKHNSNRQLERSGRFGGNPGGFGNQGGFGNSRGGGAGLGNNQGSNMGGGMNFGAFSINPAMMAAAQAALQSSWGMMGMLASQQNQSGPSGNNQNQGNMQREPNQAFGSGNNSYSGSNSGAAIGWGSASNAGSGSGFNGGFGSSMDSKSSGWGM
UniProt P35637: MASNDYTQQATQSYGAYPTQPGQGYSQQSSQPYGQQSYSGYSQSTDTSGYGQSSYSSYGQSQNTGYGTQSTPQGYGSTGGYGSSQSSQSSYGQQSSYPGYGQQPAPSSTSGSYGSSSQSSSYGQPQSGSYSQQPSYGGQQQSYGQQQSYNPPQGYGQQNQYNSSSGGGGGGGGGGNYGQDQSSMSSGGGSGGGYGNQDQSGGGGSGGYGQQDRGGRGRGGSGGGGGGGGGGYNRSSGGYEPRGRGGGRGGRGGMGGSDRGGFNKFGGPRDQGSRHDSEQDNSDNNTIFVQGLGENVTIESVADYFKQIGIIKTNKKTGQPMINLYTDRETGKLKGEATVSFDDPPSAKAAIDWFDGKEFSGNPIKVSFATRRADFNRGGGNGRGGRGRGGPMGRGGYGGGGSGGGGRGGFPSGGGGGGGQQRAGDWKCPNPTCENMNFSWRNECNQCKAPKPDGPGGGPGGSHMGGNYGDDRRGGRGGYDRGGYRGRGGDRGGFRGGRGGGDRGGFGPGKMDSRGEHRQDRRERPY
UniProt P06748: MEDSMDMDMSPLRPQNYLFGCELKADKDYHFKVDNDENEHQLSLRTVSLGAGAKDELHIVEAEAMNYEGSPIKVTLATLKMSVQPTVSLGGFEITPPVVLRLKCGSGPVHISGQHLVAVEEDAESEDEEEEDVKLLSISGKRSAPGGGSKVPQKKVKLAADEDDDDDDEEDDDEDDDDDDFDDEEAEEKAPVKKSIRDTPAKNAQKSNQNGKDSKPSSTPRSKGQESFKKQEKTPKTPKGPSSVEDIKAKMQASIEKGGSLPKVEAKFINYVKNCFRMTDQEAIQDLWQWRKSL
UniProt P21926: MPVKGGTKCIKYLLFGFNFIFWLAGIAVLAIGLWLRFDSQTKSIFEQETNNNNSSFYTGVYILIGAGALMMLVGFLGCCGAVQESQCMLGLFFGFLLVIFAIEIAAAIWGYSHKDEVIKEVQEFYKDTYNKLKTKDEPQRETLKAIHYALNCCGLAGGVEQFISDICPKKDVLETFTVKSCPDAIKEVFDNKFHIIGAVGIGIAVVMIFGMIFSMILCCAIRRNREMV

Each substance was assayed against TAR DNA-binding protein 43 (human (endogenous in post-mortem brain)) (UniProt Q13148) (assay: single-molecule pulldown (SiMPull); CAP1-SiMPull with colabelling: aggregates of human brain extracts captured on biotinylated CAP1, detected with a fluorescent TDP-43 antibody and a second fluorescent antibody against the protein of interest; spots within a 4-pixel radius counted as colabelled; MND TDP cohort compared with controls).

Row | binding | Substance
1 | binds | FUS (from UniProt P35637 1-526)
2 | binds | nucleophosmin (from UniProt P06748 1-294)
3 | binds | CD9 (from UniProt P21926 1-228)
